PubChem BioAssay AID1259308 | NCATS | 2017
In all, the deposit lists about 59,000 reagents; shown is a part drawn at random. In the full data, about 1,510 (2.6%) got an active call. 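Calls use total luciferase alone and ignore viability, so some active siRNAs may act by altering cell number.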 Reagents against one gene are numbered here. Further read-outs or replicates are left out here.

Purpose: 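Candidate targets for better recombinant protein yield in mammalian cells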 (primary screen)
Cell system: human HEK293 embryonic kidney cells stably expressing firefly luciferase (HEK-CMV-Luc2-Hygro)
Knock-down reagent: single siRNA against human genes, 0.8 pmol siRNA per well
Duration: 72 h
Measurement: 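Reporter luminescence and viable-cell signal on separate replicate plates, given as percent of non-targeting control and median/MAD z-scores, plus per-cell luciferase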
Direction: total luciferase, z-score and total luciferase, % of control: higher = more reporter protein produced
Rule for the call: 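An siRNA counts as active if its total luciferase robust z-score exceeds 3; genes with two or more such siRNAs out of three were retested with fresh siRNAs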
Calls: active = raised luciferase; inactive = no rise

"total luciferase, z-score","total luciferase, % of control",Outcome,gene knocked down,reagent no.
-2.35,35.2,inactive,ABCE1 (ATP binding cassette subfamily E member 1),1
-0.688,68.2,inactive,ABCE1 (ATP binding cassette subfamily E member 1),2
-1.87,44.6,inactive,ABCE1 (ATP binding cassette subfamily E member 1),3
1.12,104,inactive,LIG3 (DNA ligase 3),1
-0.0827,80.2,inactive,LIG3 (DNA ligase 3),2
-0.748,67,inactive,LIG3 (DNA ligase 3),3
0.251,86.9,inactive,ADAMTS8 (ADAM metallopeptidase with thrombospondin type 1 motif 8),1
0.294,87.7,inactive,ADAMTS8 (ADAM metallopeptidase with thrombospondin type 1 motif 8),2
-0.659,68.8,inactive,ADAMTS8 (ADAM metallopeptidase with thrombospondin type 1 motif 8),3
-1.84,45.3,inactive,SLC1A4,1
1.33,108,inactive,SLC1A4,2
-0.663,68.7,inactive,SLC1A4,3
0.00157,81.9,inactive,PWWP3B (PWWP domain containing 3B),1
-0.792,66.1,inactive,PWWP3B (PWWP domain containing 3B),2
0.718,96.2,inactive,PWWP3B (PWWP domain containing 3B),3

Entries listed so far whose gene name starts with P or p (3):
"total luciferase, z-score","total luciferase, % of control",Outcome,gene knocked down,reagent no.
0.00157,81.9,inactive,PWWP3B (PWWP domain containing 3B),1
-0.792,66.1,inactive,PWWP3B (PWWP domain containing 3B),2
0.718,96.2,inactive,PWWP3B (PWWP domain containing 3B),3

Additional records follow.
"total luciferase, z-score","total luciferase, % of control",Outcome,gene knocked down,reagent no.
0.0473,82.8,inactive,PALMD (palmdelphin),1
-2.44,33.4,inactive,PALMD (palmdelphin),2
0.21,86.1,inactive,PALMD (palmdelphin),3
0.73,96.4,inactive,"SRC (SRC proto-oncogene, non-receptor tyrosine kinase)",1
-1.5,52,inactive,"SRC (SRC proto-oncogene, non-receptor tyrosine kinase)",2
2.17,125,inactive,"SRC (SRC proto-oncogene, non-receptor tyrosine kinase)",3
1.33,108,inactive,SMCO4 (single-pass membrane protein with coiled-coil domains 4),1
0.0128,82.1,inactive,SMCO4 (single-pass membrane protein with coiled-coil domains 4),2
0.775,97.3,inactive,SMCO4 (single-pass membrane protein with coiled-coil domains 4),3
